# According to publication PMC5741900:
# By UniProt entry, the sequences of proteins in these tests, tags left out. Where a name states a change or a piece, a line headed by the entry shows the natural chain unless it says otherwise.
# UniProt Q9UER7: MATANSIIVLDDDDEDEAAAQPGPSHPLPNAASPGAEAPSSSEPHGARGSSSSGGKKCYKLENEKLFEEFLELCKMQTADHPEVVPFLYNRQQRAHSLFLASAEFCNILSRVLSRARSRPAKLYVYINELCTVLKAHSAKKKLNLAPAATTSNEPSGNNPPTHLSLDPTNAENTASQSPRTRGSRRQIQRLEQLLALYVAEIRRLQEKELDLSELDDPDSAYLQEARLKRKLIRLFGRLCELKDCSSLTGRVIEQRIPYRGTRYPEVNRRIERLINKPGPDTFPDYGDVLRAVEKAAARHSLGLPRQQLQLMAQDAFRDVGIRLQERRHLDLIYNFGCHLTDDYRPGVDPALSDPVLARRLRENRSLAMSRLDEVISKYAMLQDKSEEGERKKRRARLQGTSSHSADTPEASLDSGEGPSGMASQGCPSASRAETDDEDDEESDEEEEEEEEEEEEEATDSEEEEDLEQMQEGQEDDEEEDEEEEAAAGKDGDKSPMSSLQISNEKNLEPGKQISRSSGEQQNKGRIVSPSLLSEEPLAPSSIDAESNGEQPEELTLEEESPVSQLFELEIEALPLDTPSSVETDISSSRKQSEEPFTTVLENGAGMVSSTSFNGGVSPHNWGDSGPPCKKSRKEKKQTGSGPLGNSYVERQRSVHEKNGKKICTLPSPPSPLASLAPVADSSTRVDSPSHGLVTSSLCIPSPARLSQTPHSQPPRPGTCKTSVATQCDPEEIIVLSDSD
# Target: FLAG-HA-DaxxΔSIM (UniProt Q9UER7)
# Assay: co-IP; FLAG magnetic beads on the chromatin fraction (400 mM NaCl extract) of HEp2 cells stably expressing FLAG-HA-Daxx or FLAG-HA-DaxxΔSIM; washed six times with high salt buffer, eluted with FLAG peptide; blot with CREST and CENP-B antibodies
binder,measurement,value
"CENP-B (centromere protein B), endogenous (protein, UniProt P07199 1-599) MGPKRRQLTFREKSRIIQEVEENPDLRKGEIARRFNIPPSTLSTILKNKRAILASERKYGVASTCRKTNKLSPYDKLEGLLIAWFQQIRAAGLPVKGIILKEKALRIAEELGMDDFTASNGWLDRFRRRHGVVSCSGVARARARNAAPRTPAAPASPAAVPSEGSGGSTTGWRAREEQPPSVAEGYASQDVFSATETSLWYDFLPDQAAGLCGGDGRPRQATQRLSVLLCANADGSEKLPPLVAGKSAKPRAGQAGLPCDYTANSKGGVTTQALAKYLKALDTRMAAESRRVLLLAGRLAAQSLDTSGLRHVQLAFFPPGTVHPLERGVVQQVKGHYRQAMLLKAMAALEGQDPSGLQLGLTEALHFVAAAWQAVEPSDIAACFREAGFGGGPNATITTSLKSEGEEEEEEEEEEEEEEGEGEEEEEEGEEEEEEGGEGEELGEEEEVEEEGDVDSDEEEEEDEESSSEGLEAEDWAQGVVEAGGSFGAYGAQEEAQCPTLHFLEGGEDSDSDSEEEDDEEEDDEDEDDDDDEEDGDEVPVPSFGEAMAYFAMVKRYLTSFPIDDRVQSHILHLEHDLVHVTRKNHARQAGVRGLGHQS",binding,no binding

# Results are given in words; binding and its absence hold for the method and conditions named. Binding seen in cells or lysates may run through a third protein.
